In publication PMC10909856:
These are yes or no findings as the source states them, for the method shown. In cells and extracts the contact can be indirect. Some entries that bind do so weakly or less than the wild type.

Molecular target: T1, Dishevelled Segment Polarity Protein 2 (DVL2) (mouse (endogenous in bone marrow-derived macrophages)) (UniProt Q60838)
T1 sequence: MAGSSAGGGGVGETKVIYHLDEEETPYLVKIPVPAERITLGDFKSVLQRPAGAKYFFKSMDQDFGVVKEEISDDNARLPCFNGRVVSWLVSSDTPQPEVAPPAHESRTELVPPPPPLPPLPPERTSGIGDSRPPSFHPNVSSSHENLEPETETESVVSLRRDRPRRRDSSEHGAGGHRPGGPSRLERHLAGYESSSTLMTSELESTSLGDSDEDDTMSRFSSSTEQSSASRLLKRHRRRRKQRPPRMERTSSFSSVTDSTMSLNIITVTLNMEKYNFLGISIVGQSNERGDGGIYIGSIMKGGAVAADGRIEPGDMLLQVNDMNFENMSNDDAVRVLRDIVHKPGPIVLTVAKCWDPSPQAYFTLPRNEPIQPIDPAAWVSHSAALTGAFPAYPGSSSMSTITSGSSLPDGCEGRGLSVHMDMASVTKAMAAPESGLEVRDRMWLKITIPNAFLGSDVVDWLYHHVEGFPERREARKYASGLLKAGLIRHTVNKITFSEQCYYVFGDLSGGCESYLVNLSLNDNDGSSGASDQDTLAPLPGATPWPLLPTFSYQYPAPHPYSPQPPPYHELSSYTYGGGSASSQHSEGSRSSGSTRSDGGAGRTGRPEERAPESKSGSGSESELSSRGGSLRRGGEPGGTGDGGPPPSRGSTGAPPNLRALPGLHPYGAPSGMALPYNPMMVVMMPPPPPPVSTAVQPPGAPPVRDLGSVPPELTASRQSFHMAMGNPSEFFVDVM
Assay: co-IP; endogenous proteins in lysates of M1 and M2 macrophages; indicated antibodies and G/A beads, co-IP kit (absin, abs955); detection by western blot

B1: phosphoglycerate mutase 5 (PGAM5) (protein, UniProt Q8BX10 1-288)
chain: MAFRQALQLAACGLAGGSAAVLFSAVAVGKPRGGGDADTRATEPPAWTGARAGRGVWDTNWDRREPLSLINLKKRNVESGEDELTSRLDHYKAKATRHIFLIRHSQYHVDGSLEKDRTLTPLGREQAELTGLRLASLGLKFNKIVHSSMTRAVETTDIISKHLPGVSRVSTDLLREGAPIEPDPPVSHWKPEAVQYYEDGARIEAAFRNYIHRADARQEEDSYEIFICHANVIRYIVCRALQFPPEGWLRLSLNNGSITHLVIRPNGRVALRTLGDTGFMPPDKITRS
- binding: binds
